Measurements reported in PubChem BioAssay AID1259254 (NCATS, 2017).
Here is an unselected part of about 59,000 deposited reagents. About 1,550 of all reagents (2.6%) count as active. 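G2 share is only a proxy for re-replication; each gene was hit by three separate siRNAs, and active genes were retested.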 Unmarked entries are inactive. Not all columns of the deposit are shown. Not stated in the record: the amount of reagent.

- Aim: 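Gene knock-downs that lead to re-replication, shown by excess G2 DNA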 (primary screen)
- Cells: human HCT116 colorectal cancer cells
- Reagents: single siRNA against human genes
- Duration: 3 days
- Measurement: 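Nuclei stained with Hoechst and imaged; cell-cycle phase assigned by DNA content; G2 share scaled per plate, non-targeting siRNA 0%, GMNN siRNA 100%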
- Scale: G2 robust z-score and G2 cells, % of GMNN control: higher = more G2 cells, more excess DNA replication
- Active means: 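An siRNA counts as active if its G2 robust z-score lies at least 5 MADs above the screen median; here such calls match roughly 38% of GMNN control or more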

| gene | PubChem SID | G2 robust z-score | G2 cells, % of GMNN control |
| --- | --- | --- | --- |
| CCDC183 (GeneID 84960) | SID160753045 | -0.771 | -2.46 |
| CCDC183 (GeneID 84960) | SID160753046 | -0.306 | 0.817 |
| CCDC183 (GeneID 84960) | SID160753047 | 1.53 | 13.7 |
| GTF2IRD1P1 (GeneID 729156) | SID160772483 | -0.363 | 0.414 |
| GTF2IRD1P1 (GeneID 729156) | SID160772484 | -1.3 | -6.19 |
| GTF2IRD1P1 (GeneID 729156) | SID160772485 | -0.363 | 0.411 |
| OR10V1 (GeneID 390201) | SID160766447 | 3.43 | 27.1 |
| OR10V1 (GeneID 390201) | SID160766448 | 1.05 | 10.4 |
| OR10V1 (GeneID 390201) | SID160766450 | 0.83 | 8.8 |
| SEPTIN11 (GeneID 55752) | SID160744264 | 0.09 | 3.6 |
| SEPTIN11 (GeneID 55752) | SID160744266 | -0.0845 | 2.37 |
| SEPTIN11 (GeneID 55752) | SID160744267 | 3.75 | 29.4 |
| ATP6V0B (GeneID 533) | SID160731429 | 0.827 | 8.79 |
| ATP6V0B (GeneID 533) | SID160774617 | 0.08 | 3.53 |
| ATP6V0B (GeneID 533) | SID160774638 | -0.173 | 1.75 |
| OR5A2 (GeneID 219981) | SID160761441 | -0.597 | -1.23 |
| OR5A2 (GeneID 219981) | SID160761442 | -0.721 | -2.11 |
| OR5A2 (GeneID 219981) | SID160761443 | 7.85 (active) | 58.2 |
| DYNC2I1 (GeneID 55112) | SID160742969 | -0.976 | -3.9 |
| DYNC2I1 (GeneID 55112) | SID160742970 | -0.719 | -2.09 |
| DYNC2I1 (GeneID 55112) | SID160742971 | -0.303 | 0.834 |

3 entries from above, showing only “G2 robust z-score”.
ATP6V0B (GeneID 533) [SID160774617]: 0.08
ATP6V0B (GeneID 533) [SID160774638]: -0.173
OR5A2 (GeneID 219981) [SID160761441]: -0.597

Further entries follow:
| gene | PubChem SID | G2 robust z-score | G2 cells, % of GMNN control |
| --- | --- | --- | --- |
| ST7 (GeneID 7982) | SID160719524 | -0.244 | 1.25 |
| ST7 (GeneID 7982) | SID160719525 | 0.947 | 9.63 |
| ST7 (GeneID 7982) | SID160719526 | 0.398 | 5.77 |
| SETSIP (GeneID 646817) | SID160770025 | 0.0854 | 3.57 |
| SETSIP (GeneID 646817) | SID160770026 | -0.147 | 1.93 |
| SETSIP (GeneID 646817) | SID160770027 | -0.726 | -2.14 |
| TMEM120B (GeneID 144404) | SID160758145 | -0.532 | -0.778 |
| TMEM120B (GeneID 144404) | SID160758146 | -1.11 | -4.87 |
| TMEM120B (GeneID 144404) | SID160758148 | 0.184 | 4.26 |
| RPL23 (GeneID 9349) | SID160721999 | 4.84 | 37 |
| RPL23 (GeneID 9349) | SID160722000 | 3 | 24.1 |
| RPL23 (GeneID 9349) | SID160735215 | 7.63 (active) | 56.6 |
| LIPG (GeneID 9388) | SID160722094 | 0.578 | 7.03 |
| LIPG (GeneID 9388) | SID160722095 | 0.155 | 4.06 |
| LIPG (GeneID 9388) | SID160722096 | 7.64 (active) | 56.7 |
| TAS2R3 (GeneID 50831) | SID160739727 | -0.302 | 0.843 |
| TAS2R3 (GeneID 50831) | SID160739728 | -0.146 | 1.94 |
| TAS2R3 (GeneID 50831) | SID160739729 | 0.0727 | 3.48 |
| BAIAP2L2 (GeneID 80115) | SID160724560 | 2.51 | 20.6 |
| BAIAP2L2 (GeneID 80115) | SID160724561 | 1.24 | 11.7 |
| BAIAP2L2 (GeneID 80115) | SID160734975 | 2.58 | 21.1 |
| CELF3 (GeneID 11189) | SID160730163 | 5.44 (active) | 41.2 |
| CELF3 (GeneID 11189) | SID160730164 | -0.00359 | 2.94 |
| CELF3 (GeneID 11189) | SID160730520 | -0.82 | -2.8 |
| DAZL (GeneID 1618) | SID160752660 | -0.376 | 0.323 |
| DAZL (GeneID 1618) | SID160752670 | 3.72 | 29.2 |
| DAZL (GeneID 1618) | SID160752681 | 2.46 | 20.3 |
